Test results as given in patent publication US10634592B2, “Process for microextraction and detection of an analyte” (KING FAHD UNIVERSITY OF PETROLEUM AND MINERALS, priority 2015, dated 2020).

Details: air dried green alga, unspiked real sample

Row | Compound | Contents in Green alga
1 | ClC(Cl)Br [BDCM, bromodichloromethane] | 2.9 ng/g
2 | ClC(Br)Br [DBCM, dibromochloromethane] | 3.0 ng/g
3 | ClC(Cl)Cl [TCM, trichloromethane] | 0.9 ng/g
4 | BrC(Br)Br [TBM, tribromomethane] | 2.5 ng/g
5 | CC(=O)C(Cl)Cl [DCP, 1,1-dichloro-2-propanone] | 1.8 ng/g
6 | CC(=O)C(Cl)(Cl)Cl [TCP, 1,1,1-trichloro-2-propanone] | 1.9 ng/g
